Measurements taken from paper PMC5081203.
Results are given in words; binding and its absence hold for the method and conditions named. Binding calls can cover weak binding; strength is not graded here. Sequences can lack the tags named with a protein.

Assays:
Experiment in all cases: pull-down; GST-tagged Zasp52 proteins held on glutathione-agarose beads, washed, then rabbit skeletal muscle α-actinin added for 3 hours at 4°C; final washes with 150 mM NaCl and 0.2% Triton X-100; SDS-PAGE and immunoblotting; both purified
[1] = target: T1, GST-Zasp52-PDZ (Drosophila melanogaster) (UniProt A1ZA47)
T1 sequence: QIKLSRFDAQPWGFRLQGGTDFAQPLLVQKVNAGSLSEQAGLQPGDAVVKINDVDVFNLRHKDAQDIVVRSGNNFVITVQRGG

[2] = target: T2, GST-Zasp52-STOP112 (Drosophila melanogaster) (UniProt A1ZA47)
T2 sequence: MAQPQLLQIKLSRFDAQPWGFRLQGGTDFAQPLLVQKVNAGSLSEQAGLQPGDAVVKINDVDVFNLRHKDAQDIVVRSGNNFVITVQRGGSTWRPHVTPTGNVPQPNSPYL

[3] = target: T3, GST-Zasp52-STOP143 (Drosophila melanogaster) (UniProt A1ZA47)
T3 sequence: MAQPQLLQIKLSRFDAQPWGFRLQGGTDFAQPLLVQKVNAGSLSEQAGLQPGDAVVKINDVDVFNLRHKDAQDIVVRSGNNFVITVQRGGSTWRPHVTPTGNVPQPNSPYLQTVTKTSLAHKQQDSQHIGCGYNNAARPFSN

[4] = target: T4, GST-Zasp52-STOP155 (Drosophila melanogaster) (UniProt A1ZA47)
T4 sequence: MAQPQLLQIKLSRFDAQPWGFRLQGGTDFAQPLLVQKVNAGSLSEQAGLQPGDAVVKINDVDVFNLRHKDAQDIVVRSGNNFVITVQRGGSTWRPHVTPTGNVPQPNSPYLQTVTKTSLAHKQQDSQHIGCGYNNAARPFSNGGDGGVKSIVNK

## rabbit skeletal muscle α-actinin (Cytoskeleton)
[1]
  binding: binds weakly
[2]
  binding: binds weakly
[3]
  binding: binds
[4]
  binding: binds
